Assay results as given in paper PMC6492038.
No constants are given. Whether binding was seen depends on the method and setting. Binding seen in cells or lysates may run through a third protein. Some binding calls cover weakened binding; strength is not graded here. For some assays here: Sequences can lack the tags named with a protein.

The chains behind the UniProt entries cited, without tags or fusion partners.
UniProt P49841: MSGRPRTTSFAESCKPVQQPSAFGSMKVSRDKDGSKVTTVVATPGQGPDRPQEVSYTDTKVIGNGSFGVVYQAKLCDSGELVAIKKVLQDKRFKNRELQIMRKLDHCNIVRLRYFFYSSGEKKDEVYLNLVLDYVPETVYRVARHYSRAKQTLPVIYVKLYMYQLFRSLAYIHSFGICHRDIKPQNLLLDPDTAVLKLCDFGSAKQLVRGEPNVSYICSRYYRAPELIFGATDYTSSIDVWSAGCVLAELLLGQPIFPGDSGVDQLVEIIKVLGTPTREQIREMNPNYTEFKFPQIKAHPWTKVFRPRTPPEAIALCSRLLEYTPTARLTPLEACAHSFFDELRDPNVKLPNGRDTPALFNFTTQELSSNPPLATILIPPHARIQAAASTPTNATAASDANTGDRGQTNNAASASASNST

Assays:
[1] = molecular target: T1, Endogenous SIRT2 (human (endogenous in SH-SY5Y)) (UniProt Q8IXJ6); assay: co-IP; endogenous SIRT2 immunoprecipitated from SH-SY5Y cells treated with or without 100 μM 6-OHDA for 4 h; GSK3β detected by Western blot
T1 sequence: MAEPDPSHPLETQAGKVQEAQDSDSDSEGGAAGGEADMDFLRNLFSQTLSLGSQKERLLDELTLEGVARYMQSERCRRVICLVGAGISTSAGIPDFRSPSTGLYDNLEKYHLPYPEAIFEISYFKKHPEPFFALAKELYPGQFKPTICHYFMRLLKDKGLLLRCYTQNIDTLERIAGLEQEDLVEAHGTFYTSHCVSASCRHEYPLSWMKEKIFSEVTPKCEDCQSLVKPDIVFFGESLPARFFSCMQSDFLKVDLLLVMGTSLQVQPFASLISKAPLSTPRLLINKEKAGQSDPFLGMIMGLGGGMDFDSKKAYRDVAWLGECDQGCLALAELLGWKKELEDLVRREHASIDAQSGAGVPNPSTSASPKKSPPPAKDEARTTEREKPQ

Flag-tagged SIRT2 = molecular target: T2, Flag-tagged SIRT2 (UniProt Q8IXJ6); assay: co-IP; HEK293 cells expressing Flag-tagged SIRT2 or HA-tagged GSK3β; lysis in 50 mM Tris-HCl pH 7.4, 150 mM NaCl, 1% NP-40; HA or Flag antibody overnight at 4°C, Protein A/G Sepharose beads; anti-GST and anti-Myc antibodies as IgG controls
T2 sequence: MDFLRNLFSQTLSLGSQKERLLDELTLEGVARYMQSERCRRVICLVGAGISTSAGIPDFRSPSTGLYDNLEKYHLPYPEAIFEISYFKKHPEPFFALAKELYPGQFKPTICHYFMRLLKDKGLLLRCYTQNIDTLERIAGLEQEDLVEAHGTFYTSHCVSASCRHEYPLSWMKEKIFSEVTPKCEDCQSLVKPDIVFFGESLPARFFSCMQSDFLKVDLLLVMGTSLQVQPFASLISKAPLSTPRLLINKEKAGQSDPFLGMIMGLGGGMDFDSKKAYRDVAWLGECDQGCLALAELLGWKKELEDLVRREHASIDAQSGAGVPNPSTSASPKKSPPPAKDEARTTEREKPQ

binding [1]	binding (Flag-tagged SIRT2)	Substance
binds	–	Endogenous GSK3β (from UniProt P49841 1-420) (enzyme)
–	binds	HA-tagged GSK3β (from UniProt P49841 1-420) (enzyme)
